Experimental data from patent publication US20240026012A1.
Residue numbers refer to the chain shown, from its start. Results are given in words; binding and its absence hold for the method and conditions named. Some results given as binding are weak or reduced against the parent protein; the word gives no strength.

B1: D92 FGFR4 binding polypeptide (VH domain only) (protein)
VH: EVQLVESGGGLVQPGGSLRLSCVASGFTFSSYGMHWVRQAPGKGLEWIGYSYYSGSTYYNPSLKSLVTISRDNSKNTLYLQMNSLRAEDTATYYCARDGSSWYSFPYYYGMDVWGQGTTVTVSS
B2: E61 FGFR4 binding polypeptide (VH domain only) (protein)
VH: EVQLVESGGGLVQPGGSLRLSCTFSGFTFSSYAMSWVRQAPGKGLEWMGIIYPGDSNTIYSPSFQGQVTISRDNSKNTLYLQMNSLRAEDTATYYCARSGAYDGRIWFDPWGQGTLVTVSS
B3: D8 FGFR4 binding polypeptide (VH domain only) (protein)
VH: EVQLVESGGGLVQPGGSLRLSCAASGFTFSNYGMSWVRQAPGKALEWIGEINHSGSTNYNPSLKSRVTISRDNSKNTLYLQMNSLRAEDTAIYYCRGGWVGYWGQGTLVTVSS
B4: F11 FGFR4 binding polypeptide (VH domain only) (protein)
VH: EVQLVESGGGLVQPGGSLRLSCAASGFTFSNYGMSWVRQAPGQGLEWVSYISNGGGTMYYADSVKGRFTISRDNSKNTLYLQMNSLRAEDTATYYCTRAPYCSGGDCYPMSTHELDSWGQGTLVTVSS
B5: C1-VLVH FGFR4 binding polypeptide (scFv)
scFv: DIQMTQSPSSLSASVGDRVTITCRASQSISSYLNWYQQKPGKAPKLLIYAASSLQSGVPSRFSGSGSGTDFTLTISSLQPEDAATYYCQHYGTFGQGTKVEIKRGGGGSGGGGSGGGGSQVQLVESGGGLVKPGGSLRLSCAASGFTFSDYYMSWIRQAPGKGLEWVSYISSSGSTIYYADSVKGRFTISRDNAKNSLYLQMNSLRAEDTAVYYCARHAPHKHYDFWSGYYPDYWGQGTLVTVSS
B6: D7-VLVH FGFR4 binding polypeptide (scFv)
scFv: DIQMTQSPSSLSASVGDRVTITCRASQSISSYLNWYQQKPGKAPKLLIYAASSLQSGVPSRFSGSGSGTDFTLTISSLQPEDIAAYYCQHYGTFGQGTKLEIKRGGGGSGGGGSGGGGSQVQLVESGGGLVKPGGSLRLSCAASGFTFSDYYMSWIRQAPGKGLEWVSYISSSGSTIYYADSVKGRFTISRDNAKNSLYLQMNSLRAEDTAVYYCARDGYPLGGGYDFWSGYYPDYWGQGTLVTVSS
B7: C9-VLVH FGFR4 binding polypeptide (scFv)
scFv: DIQMTQSPSSLSASVGDRVTITCRASQSISSYLNWYQQKPGKAPKLLIYAASSLQSGVPSRFSGSGSGTDFTLTISSLQPEDFAVYYCQQRSNWPPTFGQGTKLEIKRGGGGSGGGGSGGGGSQVQLVESGGGLVKPGGSLRLSCAASGFTFSDYYMSWIRQAPGKGLEWVSYISSSGSTIYYADSVKGRFTISRDNAKNSLYLQMNSLRAEDTAKYYCATAVFSLGPEGYYYYMDVWGKGTTVTVSS
B8: G6-VLVH FGFR4 binding polypeptide (scFv)
scFv: DIQMTQSPSSLSASVGDRVTITCRASQSISSYLNWYQQKPGKAPKLLIYAASSLQSGVPSRFSGSGSGTDFTLTISSLQPEDAATYYCQHYGTFGQGTKLEIKRGGGGSGGGGSGGGGSQVQLVESGGGLVKPGGSLRLSCAASGFTFSDYYMSWIRQAPGKGLEWVSYISSSGSTIYYADSVKGRFTISRDNAKNSLYLQMNSLRAEDTAVYYCARHKTSLNDYDFWSGYLLDYWGQGTLVTVSS
B9: A6-VLVH FGFR4 binding polypeptide (scFv)
scFv: B8 scFv with H90R, L100V, E101D
B10: B7-VLVH FGFR4 binding polypeptide (scFv)
scFv: B8 scFv with A83F, T85V, L100V, V212M
B11: H4-VLVH FGFR4 binding polypeptide (scFv)
scFv: DIQMTQSPSSLSASVGDRVTITCRASQSISSYLNWYQQKPGKAPKLLIYAASSLQSGVPSRFSGSGSGTDFTLTISSLQPEDVGVYYCLQITHWPHTFGQGTKLEIKRGGGGSGGGGSGGGGSQVQLVESGGGLVKPGGSLRLSCAASGFTFSDYYMSWIRQAPGKGLEWVSYISSSGSTIYYADSVKGRFTISRDNAKNSLYLQMNSLRAEDTAMYYCARDAPDLLAVPTVIFSGYHYGADVWGQGATVTVSS

biological target: T1, recombinant extracellular domain (ECD) FGFR4 (UniProt P22455); test: dAb phage display panning on recombinant ECD FGFR4; semELISA
T1 sequence (looked up): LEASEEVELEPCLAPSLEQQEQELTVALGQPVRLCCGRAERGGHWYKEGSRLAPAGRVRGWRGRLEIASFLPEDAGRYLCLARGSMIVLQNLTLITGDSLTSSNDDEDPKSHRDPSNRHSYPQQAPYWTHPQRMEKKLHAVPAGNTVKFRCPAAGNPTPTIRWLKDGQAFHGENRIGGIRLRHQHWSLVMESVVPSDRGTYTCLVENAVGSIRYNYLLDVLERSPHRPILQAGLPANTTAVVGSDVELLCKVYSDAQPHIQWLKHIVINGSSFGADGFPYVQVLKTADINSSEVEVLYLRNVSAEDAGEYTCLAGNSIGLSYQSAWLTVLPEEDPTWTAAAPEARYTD

binding, binds:
B1, B2, B3, B4

biological target: T1, recombinant extracellular domain (ECD) FGFR4; test: F(ab)-based phage display library screen

binding, binds:
B5, B6, B7, B8, B9, B10, B11
